Experimental data: patent US20220387602A1, “BIFUNCTIONAL DEGRADERS AND THEIR METHODS OF USE” (NOVARTIS AG, priority 2019, published 2022)
At least one structure is not confirmed: it was looked up by name or label, or the drawing left a doubt.

System: HEK293 and TMD8 cells
Assay: Proteomics experiment (TMT quantification mass spectrometry of protein abundance)
Format: cell-based
Details: 1 μM, 6 hours, FIG. 3E
Experimental: HEK293 and TMD8 cells were treated with 1 μM dasatinib, 1 μM compound 06, 1 μM compound 07 or DMSO and protein abundance was analyzed using TMT quantification mass spectrometry. Significant changes were assessed by limma, log 2 fold changes are shown on the x-axis and p-values on the y-axis. Proteins with kinase annotations in UniProt are shown as squares and kinases with a log2 fold change≤−0.6 and a p-value≤0.01 are labeled with the corresponding gene name.
HEK293 and TMD8 cells were treated for 6 hours with DMSO (3 replicates), 1 μM dasatinib (2 replicates), 1 μM compound 06 (3 replicates) and 1 μM compound 07 (3 replicates), respectively. TMT11plex-labeled peptides were generated with the PreOmics iST-NHS kit according to the manufacturer's protocol (PreOmics, Germany). […] The 24 fractions were analyzed with a 25 cm×75 μm ID, 1.6 μm C18 Aurora Series emitter column (IonOpticks, Australia) on an EASY-nLC 1200 system coupled to an Orbitrap™ Fusion Lumos mass spectrometer (Thermo Fisher Scientific, USA). […] The Proteome Discoverer™ 2.1 software and the SEQUEST algorithm was used for protein identification and relative quantification. Log2 fold changes of protein abundances and p-values were calculated in Python and R with the limma package (Ritchie M E et al. Limma powers differential expression analyses for RNA-sequencing and microarray studies. Nucleic Acids Res. 2015, 43(7):e47).

Cc1nc(Nc2ncc(C(=O)Nc3c(C)cccc3Cl)s2)cc(N2CCN(CCO)CC2)n1 [dasatinib, reference compound]
degradation of bound kinase targets (proteomics): does not appreciably degrade the targets to which it binds
